The other results are listed elsewhere or left out. Further columns of the screen follow, without active or inactive calls. Compounds called inactive in the main read-out are mostly missing here. Potencies come from curve fits of mixed quality, noted in brackets.
Test: qHTS Assay for Lipid Storage Modulators in Drosophila S3 Cells;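 as to cell number change: cells counted by Cell Tracker Red CMTPX staining in the red channel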
Settings: BODIPY lipid droplet fluorescence, 18-24 h; for cell number change: measured here: cell count max response, cells fed with added oleic acid
Method in brief: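 Drosophila S3 cells got compounds at several concentrations plus oleic acid (400 uM solution). Laser-scanning cytometry with 488 nm excitation read lipid droplets at 500-530 nm and cells at 575-640 nm. Percent activity was relative to 20 uM Triacsin C.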

[1] = measured here: cell number channel AC50, cells fed with added oleic acid
[2] = measured here: lipid fluorescence (Fed channel) AC50, cells fed with added oleic acid

Row | Structure (SMILES) | cell number change [%] | AC50 [1] | AC50 [2]
1 | O=C(NCc1ccc2c(c1)OCO2)C(c1ccco1)N(C(=O)c1csnn1)c1ccccc1 (configuration not stated) | 39.6 | 2.31 µM [rising, partial curve] | 1.03 µM [rising, single point]
2 | COC(=O)c1ccc(Nc2cc(C)nc3ccc(C)cc23)cc1 | -30.5 | 29.1 µM [falling, single point] | 25.9 µM [falling, partial curve, poor fit]
3 | COc1ccc(CCC(=O)N(c2nnc(-c3cccnc3)s2)C(C)C)cc1 | 25.5 | 6.51 µM [rising, partial curve, poor fit] | 
4 | CC1CCCC(N2CCN(C(=O)c3ccc([N+](=O)[O-])cc3)CC2)C1 (configuration not stated) | -5.03 |  | 
5 | CN1C(=O)/C(=C2\SC(N)=NC2=O)c2ccccc21 |  |  | 16.4 µM [falling, single point]
6 | CC(C)(C)c1ccc(C(=O)NC(=S)N2CCCCCC2)cc1 | -18.7 | 3.66 µM [rising, single point] | 29.1 µM [falling, single point]
7 | COC(=O)c1ccc(OC(=O)CN2C(=O)c3ccccc3C2=O)cc1 | 20.3 |  | 
8 | CC(C)=CC(=O)Nc1ccccc1Br |  |  | 6.51 µM [falling, single point]
9 | Cc1cccc2c1OCC/C2=N\NC(=O)COc1ccccc1Cl | 11.2 |  | 0.82 µM [falling, full curve, poor fit]
10 | CC12C=CC(=O)C=C1CCC1C3CCC(O)(C(=O)CO)C3(C)CC3OC312 (configuration not stated) | -4.94 |  | 0.092 µM [falling, full curve, poor fit]
11 | S=c1[nH]nc(C2CCCCC2)n1/N=C/C=C/c1ccccc1 | -25.6 |  | 10.3 µM [falling, partial curve, poor fit]
12 | O=C(CSc1ncnc2nc[nH]c12)c1ccc2ccccc2c1 | -24.6 |  | 23.1 µM [falling, single point]
13 | CCc1ccc(/C=C2/Sc3ccccc3N(CC(=O)NCCCN3CCOCC3)C2=O)cc1 |  | 4.61 µM [rising, single point] | 
14 | COc1ccc2nc(SCC(=O)NC3CCCCC3C)[nH]c2c1 (configuration not stated) |  |  | 32.6 µM [falling, partial curve]
15 | Cc1ccc2cc(CCNC(=O)c3cccs3)c(=O)[nH]c2c1C | -4.37 |  | 6.51 µM [falling, single point]
16 | COc1ccccc1N1CCN(S(=O)(=O)CCNC(=O)c2cc(OC)c(OC)c(OC)c2)CC1 | 91 | 29.1 µM [rising, single point] | 29.1 µM [rising, single point]
17 | CCC(C)(C)NC(=O)CN(C(=O)c1snc(C(N)=O)c1N)c1ccc2c(c1)OCO2 |  | 2.06 µM [rising, partial curve] | 0.58 µM [rising, single point]
18 | CC1CCC2C(=O)N(c3ccc(NC4CCN(Cc5ccccc5)CC4)c([N+](=O)[O-])c3)C(=O)C2C1 (configuration not stated) | 45.6 | 14.6 µM [rising, single point] | 
19 | Cc1ccc(S(=O)(=O)N2CCCCC2)cc1C(=O)N1CCN(CCO)CC1 | -9.94 |  | 0.00461 µM [rising, full curve, poor fit]
20 | Cc1ccc(SCC(=O)N2CC(C)OC(C)C2)cc1 (configuration not stated) | -47 | 29.1 µM [falling, single point] | 

Arranged by length of the SMILES (ascending): part of the list above
Row | Structure (SMILES) | cell number change [%] | AC50 [1] | AC50 [2]
9 | Cc1cccc2c1OCC/C2=N\NC(=O)COc1ccccc1Cl | 11.2 |  | 0.82 µM [falling, full curve, poor fit]
2 | COC(=O)c1ccc(Nc2cc(C)nc3ccc(C)cc23)cc1 | -30.5 | 29.1 µM [falling, single point] | 25.9 µM [falling, partial curve, poor fit]
11 | S=c1[nH]nc(C2CCCCC2)n1/N=C/C=C/c1ccccc1 | -25.6 |  | 10.3 µM [falling, partial curve, poor fit]
7 | COC(=O)c1ccc(OC(=O)CN2C(=O)c3ccccc3C2=O)cc1 | 20.3 |  | 
3 | COc1ccc(CCC(=O)N(c2nnc(-c3cccnc3)s2)C(C)C)cc1 | 25.5 | 6.51 µM [rising, partial curve, poor fit] | 
4 | CC1CCCC(N2CCN(C(=O)c3ccc([N+](=O)[O-])cc3)CC2)C1 (configuration not stated) | -5.03 |  | 
16 | COc1ccccc1N1CCN(S(=O)(=O)CCNC(=O)c2cc(OC)c(OC)c(OC)c2)CC1 | 91 | 29.1 µM [rising, single point] | 29.1 µM [rising, single point]

Going on with the list:

Row | Structure (SMILES) | cell number change [%] | AC50 [1] | AC50 [2]
21 | Clc1ccc(CSc2nnc([C@@H]3CCCN3)o2)cc1Cl |  | 2.91 µM [rising, single point] | 0.92 µM [rising, full curve, poor fit]
22 | CCOc1ccc(NC(C)c2cc(Cl)ccc2O)cc1 (configuration not stated) | -94.4 |  | 3.26 µM [falling, partial curve]
23 | N#CCCN1CCCc2cc(N=Nc3ccc(C(F)(F)F)cc3)ccc21 | -61.7 | 2.06 µM [falling, full curve] | 2.06 µM [falling, full curve]
24 | O=c1cc(O)c2sc(Nc3ccc(F)cc3)nc2[nH]1 | -19.1 |  | 
25 | N#CC1=C(N)Nc2ncnn2C1c1ccccc1 (configuration not stated) | -33.3 | 0.291 µM [falling, partial curve, poor fit] | 
26 | O=C(CSc1nnc(CNC(=O)c2c(F)cccc2F)o1)NCc1ccco1 | -14 |  | 0.82 µM [rising, full curve, poor fit]
27 | CCCCn1c(=O)[nH]c(=O)c2c1nc(-c1cc(Cl)c(OC)c(OC)c1)n2C | 19.8 |  | 
28 | COc1ccccc1CN(C)C(=O)C(NC(=O)Cc1cccc2ccccc12)C(C)C (configuration not stated) | -12.7 |  | 0.651 µM [falling, single point]
29 | O=C(/C=C/c1ccco1)NC(=S)Nc1cc(C(F)(F)F)ccc1N1CCOCC1 | 27.4 |  | 13 µM [rising, single point]
30 | COC(=O)c1sccc1NC(=S)N1CCCCC1C (configuration not stated) |  | 0.651 µM [rising, single point] | 0.411 µM [rising, partial curve, poor fit]
31 | O=C(c1ccc(S(=O)(=O)Nc2ccccc2)cc1)N1CCCCCCC1 | 45.4 | 14.6 µM [rising, partial curve] | 
32 | CCCCN(C(=O)c1cc(Cl)nc2ccccc12)c1c(N)n(CCCC)c(=O)[nH]c1=O | -9.72 |  | 
33 | CC(=O)c1ccc(NC(=O)CSc2n[nH]c(-c3cccnc3)n2)cc1 | 5.41 |  | 6.51 µM [falling, partial curve, poor fit]
34 | CCN(CC)C(CNC(=O)c1cc(=O)[nH]c2ccccc12)c1ccccc1Cl (configuration not stated) | 10.3 |  | 6.51 µM [rising, single point]
35 | CCCCCc1ccc(S(=O)(=O)NCCc2ccncc2)cc1 | -3.05 |  | 
36 | COc1ccc(NC(=O)Cc2c(SC)c3ccccc3n2Cc2ccccc2)cc1 | 0.1 |  | 0.259 µM [falling, full curve, poor fit]
37 | Cn1ccnc1C(O)c1ccc(OCc2ccccc2)cc1 (configuration not stated) | 14.9 |  | 14.6 µM [rising, partial curve]
38 | CCn1nc(C(=O)OCC(=O)N2CC(=O)Nc3ccccc32)c2ccccc2c1=O | 5.08 |  | 
39 | COC(=O)CSc1nnc(-c2ccco2)n1-c1ccc(C)cc1 | 3.31 |  | 0.092 µM [rising, full curve, poor fit]

— PubChem BioAssay AID2685 (National Center for Advancing Translational Sciences (NCATS), 2010)
